These results are taken from publication PMC12386351, “Monoterpene Indole Alkaloids with Antimicrobial Activity Against Helicobacter pylori” (International Journal of Molecular Sciences, 2025).

The data set concerns VERO cells. The experiment in a line: MTT cytotoxicity assay on VERO cells. Format: cell-based. Conditions: CC50 VERO cells / MIC H. pylori; MIC used instead of IC50. As to the method:
The cytotoxicity of the compounds showing antibacterial activity was evaluated in VERO cell cultures (FTVE, Vircell, S.L., Granada, Spain) using the standard MTT colorimetric assay. Briefly, sub confluent cell cultures were exposed for 48 h, to 2-fold dilutions of each assayed compound, ranging from 80 to 10 µM, in 100 μL CO2-independent medium supplemented with 5% FBS and […] gentamicin (Gibco^TM, Grand Island, NY, USA) (CO2-ind-FBS5). In each assay, cells exposed to equivalent concentrations of DMSO as solvent and untreated cells were kept as controls; untreated cells were considered the baseline for 100% viability.
After 48-h incubation at 37 °C, the culture medium was replaced by fresh CO2-ind-FBS5 medium supplemented with 0.5 mg/mL MTT (Thermo Fisher Scientific, Waltham, MA, USA). Upon a 3-h incubation at 37 °C, the medium was carefully discarded, and the purple formazan crystals formed were dissolved in DMSO (100 μL/well) during a 15-min incubation with agitation at room temperature, followed by absorbance reading at 570 nm, with reference wavelength at 630 nm (BioTek Epoch2, Agilent, Winooski, VT, USA). Data analysis and visualization were performed using Excel (v.2408) and RStudio (v. 2024.04.2). When possible, the half maximal cytotoxic concentration (CC50) values were determined for each compound by fitting a dose–response three- or four-parameter log-logistic function to the triplicate experimental points using RStudio (v.2024.04.2).
The selectivity index (SI) is the ratio of the cytotoxic concentration for 50% of the cells (CC50) to the inhibitory concentration for 50% of the bacteria (IC50). Considering that IC50 values were not calculated, but are expectably lower than the MIC value, the SI was estimated by dividing the CC50 by the MIC. Therefore, this value is necessarily lower than the SI because the MIC, rather than the bacterial half-maximal inhibitory concentration (IC50), was used in the calculation. This approach allows for an estimation of the therapeutic potential of the compound by providing an indication of its selectivity for targeting bacterial cells over host cells, even though the MIC is used instead of the bacterial IC50.
To compare biofilm formation between groups (negative control, H. pylori J99, and compound treatments), one-way analysis of variance (ANOVA) was performed, followed by Tukey’s post-hoc test for multiple comparisons. Data analysis was conducted using Python 3.13.5. Similarly, for the cytotoxicity assay in VERO cells, ANOVA and Tukey’s post-hoc test were also used to compare groups at each tested concentration (ranging from 80 to 10 µM), with DMSO-treated and untreated cells as reference groups.

Structures are written as SMILES.

For the molecule `CCC1CN(C)C2Cc3c([nH]c4ccccc34)C(=NN=Cc3c[nH]c4cc(Br)ccc34)CC1C2C(=O)OC` (centres unmarked) [Compound 6, Dregamine(6′bromo-3′indolylmethylene)hydrazone], the “"SI" (CC50/MIC)” value is given as >8.0. For `CCC1CN(C)C2Cc3c([nH]c4ccccc34)C(=NN=Cc3c[nH]c4ccccc34)CC1C2C(=O)OC` (centres unmarked) [Compound 4, Dregamine(indolylmethylene)hydrazone], the “"SI" (CC50/MIC)” value was >4.7. In the case of `CCC1CN(C)C2Cc3c([nH]c4ccccc34)C(=NN=Cc3ccccc3O)CC1C2C(=O)OC` (centres unmarked) [Compound 5, Dregamine(2′-hydroxybenzylidene)hydrazone] it was >2.8; in that of `CCC1CN(C)C2Cc3c([nH]c4ccccc34)C(c3c(OC)ccc4c5c([nH]c34)C3(C(=O)OC)CC4CC(CC)C3N(CC5)C4CC(C)=O)CC1C2C(=O)OC` (centres unmarked) [Compound 7, Tabernaelegantinine A], >4.0. Regarding `CCC1CN(C)C2Cc3c([nH]c4ccccc34)C(=NN=CC=Cc3ccccc3)CC1C2C(=O)OC` (centres unmarked) [Compound 3, Dregamine(phenylallylidene)hydrazone], the “"SI" (CC50/MIC)” value is listed as >2.2.
